Source: PubChem BioAssay AID1347426 (Functional Genomics Laboratory (NCATS/FGL), 2020)
Out of some 31,000 sequences screened, about 1,400 (4.5%) were called active.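 The calls were made as follows: active = median seed-adjusted z-score above 1 or below -1; inactive = the rest.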 The list shows a part of the results.

test: Novel Modifiers of Survival Motor Neuron (SMN) Protein: Gene Identification via Genome-wide siRNA Screen; settings: HEK293T SMN2-luciferase reporter, siRNA knockdown, 72 h; actives lie on both sides;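 also: luminescence tracks full-length SMN protein made from the SMN2 reporter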
In short: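 HEK293T cells stably expressing an SMN2 splicing/cDNA-luciferase reporter were reverse-transfected with a druggable-genome siRNA library and read by luminescence at 72 hours; hits defined by MAD score above 1.0 or below -1.0.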

Row | Sequence | median seed-adjusted z-score
1 | GCCUCGUGGAAAUACAGUATT against GIT2 | inactive: 0.338
2 | GCUGGGUAGUUUGACUGAATT against TRIM61 | inactive: 0.0116
3 | CAGUGAGAGUUUCAUCUUUTT against PKD1L2 | active: -1.17
4 | GAGAUGUUCAUGCUACUAATT against SCN7A | inactive: 0
5 | CAAUAUUCCGUACAUAGAATT against MRAS | inactive: 0.032
6 | CAGUUAUAUGAACGAAUUATT against PLS3 | inactive: -0.167
7 | GGUGCAACCUUCAAAGACATT against ZNF687 | inactive: 0
8 | GCUUAUAGCUGCUACAAUUTT against MTMR1 | inactive: -0.0204
9 | GCCCAUUGACUAUUACUUUTT against AR | inactive: -0.559
10 | GAAAGUUGUCAAUACCUGUTT against SRA1 | inactive: 0.677
11 | GGCUCAGAAAAUUAGAGAATT against P4HA3 | inactive: 0
12 | GACUAGUUUUGAUCAGGAATT against ZBTB5 | inactive: 0.314
13 | CCUCGAGUACAACAAUGAATT against RKHD4 | inactive: 0.0683
14 | GGUUCAGAUUCACACCUAUTT against FKBP9 | inactive: 0.359
15 | CGUGUCAAGUUUACACUGATT against MFSD2 | inactive: -0.325
16 | GGAAUUUUACCAAUCCGUUTT against PCDHA13 | inactive: -0.624
17 | CCCUACCUAUGGUCAACAATT against LPP | inactive: -0.103
18 | CUUCACUGGUUUUACUAAATT against ABCB6 | inactive: -0.359
19 | CGUUCGUGAUGGACUACUATT against GPR109B | inactive: 0.321
20 | CCACUAUAUUUCACGUUCATT against FUT2 | inactive: -0.878
21 | AGACCGACCUGGGCAUGAATT against SARM1 | inactive: 0.343
22 | CGUACUUGGUAGACAUGCATT against FZD2 | inactive: -0.0134
23 | GCUCCUCAGUGGUUGGAAATT against WDFY1 | inactive: 0.979

Row | Sequence | median seed-adjusted z-score
24 | GCACACUGUUCGAAGCUGATT against ALOX15 | inactive: 0.0369
25 | AGGAGUAUGUUCUACUAAATT against ESRRA | inactive: -0.833
26 | GAGUUAUCCUUAAUGGAUUTT against SIX4 | inactive: 0.0462
27 | CAAAAACUUUCAAUGCAAUTT against ZNF695 | inactive: -0.358
28 | GGCAUGUAUCUAUUAGUUATT against GAB1 | inactive: 0.373
29 | CCAUCAACCUUCACUCACATT against PKNOX2 | inactive: 0.0976
30 | ACAGUAGAGUCACCACCUATT against AFAR3 | inactive: 0.0433
31 | GGUACUACGUGUCUAAGAATT against PCAF | inactive: -0.00665
32 | CACUUUCCUUAAUCCGGUUTT against BTBD1 | inactive: 0.0192
33 | GCAUCGACCAAAACUUAUUTT against ATXN3 | inactive: 0.04
34 | GGAGUUUGAGGUAUACCUATT against IL6 | inactive: -0.436
35 | GGAUUAAUGCUAAAUUUGUTT against HECTD2 | inactive: 0.405
36 | GCUGUAAACAGUCAUCAGATT against ZNF180 | inactive: 0
37 | GCAAGGUCCUCAGUCAAAATT against ZNF818 | inactive: -0.223
38 | UGAUGAUGCAUACAGUGUATT against SCGB2A1 | inactive: 0
39 | CUAUCGUCAAUGUAUGGUATT against EIF3I | inactive: -0.0445
40 | GCUUUCUACAAGUAUAAGATT against ERO1LB | inactive: 0.565
41 | GCCUCACUCUCAACGUGCATT against PVRL1 | inactive: -0.362
42 | GGAGUUACAUCAGACCUAUTT against MOGAT1 | inactive: 0.293
43 | CAUCCCAUCAAGUUAGUUUTT against SLC25A13 | inactive: 0.00924
44 | GGUGCUUCAGGAUACCAUATT against HFE | inactive: -0.677
45 | ACUGCAUCCGGAUCACUGATT against CXXC1 | inactive: -0.841
46 | CAUUGUUAUUGCUGACUUUTT against P2RY14 | inactive: -0.0536

Row | Sequence | median seed-adjusted z-score
47 | GCAGAUUGGUGACCUGGUATT against MIB1 | inactive: 0
48 | GCCUGGAAUUCUACCGCUATT against SLC29A1 | inactive: 0.117
49 | GAGAUAUACGAGGAGAUUATT against TIGD1 | inactive: 0.224
50 | GCUGUUUUCUAUUAUUCGATT against SLC2A4 | inactive: 0.0588
51 | GAUGAAGACUGAAGGUGUATT against NDUFB2 | inactive: 0.063
52 | CCCUAGCUGUGGGUCAGAATT against DLL4 | inactive: 0.299
53 | GAGCUUAGUGAUAAUAUAATT against ANP32E | inactive: -0.0648
54 | ACUCUAUCCUUGCUUUGCATT against ZNF219 | inactive: 0.127
55 | CCACUUUAAGAAAAAUCGATT against DLGAP1 | inactive: 0.357
56 | GGACCAGUUUGGUAUUAGATT against GPR62 | inactive: 0.0306
57 | AGUCUACAUCCAGUACCAATT against GUCA2B | inactive: -0.146
58 | CUCUUCAACAGGGAGCUGATT against GPR27 | inactive: -0.678
59 | CGAAGAGGAUGUCACCGAATT against SLC22A1 | inactive: -0.637
60 | GACCAGGCGAUAAAAAGUATT against TXNL4B | inactive: 0.762
61 | CAACAUCUUUAAGCGGUCATT against NSUN4 | inactive: -0.491
62 | CCUGGAUCCAAAUAGCGAATT against SMARCA2 | inactive: -0.458
63 | CUACUGUUCUUGACCACAATT against DHX15 | active: 1.36
64 | GCACUCAAGUUGUUUAACUTT against HOXA5 | inactive: 0
65 | CAAGCAGUGAGAACAAUAATT against ITGAD | inactive: 0.188
66 | AGACCGACGUGAAAGAGGATT against HAND2 | inactive: 0.0864
67 | CCACCAUCCUGAUCCUCUUTT against GPR45 | inactive: 0.0287
68 | CCAUCGCAGAGGGAGAUAATT against USP43 | inactive: 0
69 | CAAGGAGCAAGGUUCGGAATT against KIRREL3 | inactive: -0.206

Nothing new here: entries from further up.
Row | Sequence | median seed-adjusted z-score
62 | CCUGGAUCCAAAUAGCGAATT against SMARCA2 | inactive: -0.458
63 | CUACUGUUCUUGACCACAATT against DHX15 | active: 1.36
